Test results from the odorant receptor screen of Mainland et al. (2015).
Several values for one entry are separate records, joined by “and”; a condition that tells them apart may be missing. Identical values can stand only once. The list shows a part of the results. Single wells; the ratio to wells without odorant was worked out here, and repeats agree poorly.

Key:
Experiment in all cases: odorant receptor activation (CRE luciferase / Renilla) (fold of no-odor wells); higher = more activation
Conditions in all cases: 100 µM
OR52B2 clone 1210 = tested on: OR52B2 clone 1210
OR52B4 clone 1508 = tested on: OR52B4 clone 1508
[1] = tested on: OR52B6 T36A/L90H/A146T/H149R/V267I clone 1306
OR52D1 clone 1164 = tested on: OR52D1 clone 1164
OR52E1 clone 1113 = tested on: OR52E1 clone 1113
[2] = tested on: OR52E2 H174R/R264C clone 1184
[3] = tested on: OR52E4 V176I/R184M/R228H clone 1123
OR52E5 P234L clone 1124 = tested on: OR52E5 P234L clone 1124
OR52E6 clone 1196 = tested on: OR52E6 clone 1196
OR52E8 clone 1154 = tested on: OR52E8 clone 1154

Compound	odorant receptor activation (OR52B2 clone 1210)	odorant receptor activation (OR52B4 clone 1508)	odorant receptor activation [1]	odorant receptor activation (OR52D1 clone 1164)	odorant receptor activation (OR52E1 clone 1113)	odorant receptor activation [2]	odorant receptor activation [3]	odorant receptor activation (OR52E5 P234L clone 1124)	odorant receptor activation (OR52E6 clone 1196)	odorant receptor activation (OR52E8 clone 1154)
CCCCCCOC(=O)CCC [hexyl butyrate]	1.23	0.574 and 0.988	0.986 and 1.02	1.06	0.398	1.01	1.24	1.23	1.15	1.09
CC(=O)C(C)=O [diacetyl]	1.07	1.23	0.842	1.08	0.871	0.95	0.999	1.46	1.12	1.22
COc1cc(C=O)ccc1O [vanillin]	0.914	1.08	1.09	1.44	0.658	0.871	0.984	0.95	0.904	0.958
CCCCCC(C)=O [2-heptanone]	0.679	0.971 and 0.685	0.853	1.11	0.557	1.19	–	–	1.1	1.43
CCCCCCCOC(C)=O [heptyl acetate]	1.4	–	0.92 and 1.47	0.537	0.528	0.76	1.21	1.33	1.12	1.01
CCCCCCCC=O [octyl aldehyde]	0.932	0.813	0.215	1.12	1.14	1.15	0.797	0.75	1.08	1.21
COC(=O)c1ccccc1O [methyl salicylate]	0.748	0.837	0.166	0.829	0.951	1.08	1.08	0.887	0.832	0.905
CCCCCCCCCC=O [decyl aldehyde]	1.27	0.962	1.08	1.1	1.02	0.915	0.992	1.63	1.15	1.27
CC(C)(O)CCCC1=CCC(C=O)CC1 (centres undefined) [lyral]	–	–	–	–	–	–	0.917	0.965	–	–
CC1COCc2cc3c(cc21)C(C)(C)C(C)C3(C)C (centres undefined) [galaxolide]	4.15	2.17 and 4.73	–	1.22	1.93	3.25	0.531 and 0.987	0.54 and 0.869	0.786	0.868
CC12C=CCC1C1CCC3=CC(=O)CCC3(C)C1CC2 (centres undefined) [androstadienone]	1.27	0.476 and 1.38	0.875 and 1.48	0.615	0.538	1.27	–	–	1.06	0.922
CC(C)(C)c1ccc(CCC=O)cc1 [bourgeonal]	0.678	0.982	0.626	0.634	0.695	0.651	–	–	0.7	0.803
CC(C)C=O [isobutyraldehyde]	1.58	0.718 and 1.07	0.858 and 1.01	1.21	0.929	0.996	0.833	0.81	1.12	1.07
CC(=O)OCC=C(C)CCC=C(C)C [geranyl acetate]	1.44	–	0.985 and 1.95	0.623	1.32	1.41	2.13	2.67	0.837	0.798
C=CCc1ccc(O)c(OC)c1 [eugenol]	1.86 and 1.3	1.48 and 0.994 and 1.09	–	2.28 and 1.11	0.678 and 1.16	1.8 and 1.43	0.835	1.26	2.13 and 1.53	1.7 and 1.27
CC(C)C(=O)O [isobutyric acid]	1.25	0.5 and 1.03	1.03 and 0.986	0.932	0.617	0.894	0.908	0.86	1.37	1.14

Compound	odorant receptor activation (OR52B2 clone 1210)	odorant receptor activation (OR52B4 clone 1508)	odorant receptor activation [1]	odorant receptor activation (OR52D1 clone 1164)	odorant receptor activation (OR52E1 clone 1113)	odorant receptor activation [2]	odorant receptor activation [3]	odorant receptor activation (OR52E5 P234L clone 1124)	odorant receptor activation (OR52E6 clone 1196)	odorant receptor activation (OR52E8 clone 1154)
COC(=O)c1ccccc1 [methyl benzoate]	0.63	0.529 and 0.962	0.669	0.767	1.29	0.815	–	–	0.856	0.843
CC(C)CCC(=O)O [4-methylvaleric acid]	0.916	0.884	0.97	1.08	4.04	0.733	0.878	0.806	0.978	0.82
O=CCc1ccccc1 [phenyl acetaldehyde]	0.94	1.08	1.19	1.31	1.14	0.808	1.18	1.35	1.02	1.24
C=C(C)C1CCC2=CC(=O)CC(C)C2(C)C1 (centres undefined) [amyl laurate]	–	–	–	–	–	–	1.9	1.96	–	–
O=C1CCCCC1 [Cyclohexanone]	0.59	0.53 and 0.977	0.579	0.671	1.25	0.928	–	–	0.79	0.966
CCCCCOC(C)=O [n-amyl acetate]	0.534	0.587 and 0.838	0.599	0.639	1.25	0.69	0.9	0.904	0.651	0.582
O=C1CCCCCCCCCCCCCCO1 [pentadecalactone]	0.749	0.898	0.968	0.904	0.748	0.753	1	0.718	0.829	0.797
CC(=O)c1ccccc1 [acetophenone]	0.922	0.963 and 0.828	2.47	0.887	0.981	1.14	–	–	1.38	1.26
COc1ccccc1O [guaiacol]	1.32	–	0.877 and 1.45	0.644	0.789	1.08	1.36	1.48	1.02	1.23
CC12C=CCC1C1CCC3CC(=O)CCC3(C)C1CC2 (centres undefined) [androstenone]	5.46	0.89	1.35	5.05	6.2	2.8	–	–	9.79	4.38
CC1CCC(C(C)C)C(O)C1 (single isomer, unassigned; (+)) [(+)-menthol]	1.06	1.14	0.882	1.1	8.15	0.695	0.887	0.769	1.17	1.44
CC(C)CC(=O)O [isovaleric acid]	1.01	0.699	0.189	1.12	1.09	1.09	1.21	0.983	0.963	1.02
CC1=NC(C)SC1C (centres undefined)	0.836	1.15 and 0.989	1.53	0.774	1.18	0.827	–	–	0.921	0.782
c1ccc(Oc2ccccc2)cc1 [diphenyl ether]	0.978	1.32	0.923	0.995	0.845	0.856	0.866	1.16	0.957	0.973
CCCCCCC=O [heptaldehyde]	–	–	0.493 and 0.983 and 1.12	0.317 and 0.514	1.17 and 1.05	0.344 and 1.02	1.54	1.48	–	–
